Data as given in article PMC4564764, “Collagen Q and anti-MuSK autoantibody competitively suppress agrin/LRP4/MuSK signaling” (Scientific Reports, 2015).

Chains of the proteins cited; added tags and fusions are not shown. Lines headed by an entry give the natural chain unless they say otherwise; changes in a name come on top.
UniProt O15146: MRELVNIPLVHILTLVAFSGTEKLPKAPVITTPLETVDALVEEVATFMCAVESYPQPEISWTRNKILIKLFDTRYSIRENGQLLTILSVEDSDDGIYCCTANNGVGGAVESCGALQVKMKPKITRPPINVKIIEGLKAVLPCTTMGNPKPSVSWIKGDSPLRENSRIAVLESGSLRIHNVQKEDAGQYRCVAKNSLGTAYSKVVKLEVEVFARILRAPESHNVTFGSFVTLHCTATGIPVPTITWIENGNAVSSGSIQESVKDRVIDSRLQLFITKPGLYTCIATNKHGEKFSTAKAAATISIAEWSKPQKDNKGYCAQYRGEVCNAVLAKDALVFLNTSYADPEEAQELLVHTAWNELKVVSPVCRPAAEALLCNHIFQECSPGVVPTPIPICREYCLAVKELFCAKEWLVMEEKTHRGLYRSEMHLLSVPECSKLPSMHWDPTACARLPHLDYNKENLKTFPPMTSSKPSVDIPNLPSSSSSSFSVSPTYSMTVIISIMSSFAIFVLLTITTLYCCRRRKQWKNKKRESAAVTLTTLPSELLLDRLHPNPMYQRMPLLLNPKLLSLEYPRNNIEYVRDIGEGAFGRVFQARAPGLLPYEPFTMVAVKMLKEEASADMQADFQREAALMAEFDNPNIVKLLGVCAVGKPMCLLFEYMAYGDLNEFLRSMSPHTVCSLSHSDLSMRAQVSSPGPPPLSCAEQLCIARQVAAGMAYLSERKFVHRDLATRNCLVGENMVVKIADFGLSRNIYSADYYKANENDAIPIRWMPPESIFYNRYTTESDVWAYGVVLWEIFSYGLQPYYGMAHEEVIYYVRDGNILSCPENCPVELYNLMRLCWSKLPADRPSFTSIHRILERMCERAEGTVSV

How the values were obtained:
Test in all cases: co-IP; HEK293 cotransfected with wild-type or domain-deleted phMUSKect-myc and pFLAG-COLQ; lysis in 50 mM HEPES pH 7.0, 150 mM NaCl, 0.5% NP-40; IP with anti-myc (9E10) and Dynabeads Protein G; blot with anti-FLAG-HRP
[1] = molecular target: hMuSKect-myc lacking the C6 box (ΔC6) (human) (UniProt O15146)
[2] = molecular target: hMuSKect-myc lacking immunoglobulin-like domain 3 (ΔIg3) (human) (UniProt O15146)
[3] = molecular target: hMuSKect-myc lacking immunoglobulin-like domain 4 (ΔIg4) (human) (UniProt O15146)
[4] = molecular target: hMuSKect-myc lacking immunoglobulin-like domain 1 (ΔIg1) (human) (UniProt O15146)
[5] = molecular target: hMuSKect-myc lacking immunoglobulin-like domain 2 (ΔIg2) (human) (UniProt O15146)

B1: FLAG-ColQ (human collagen Q with FLAG inserted between codons 35 and 36) (protein, UniProt Q9Y215 23-455)
chain: QPTFINSVLPISAALPSLDQKKRGGHKACCLLTPPPPPLFPPPFFRGGRSPLLSPDMKNLMLELETSQSPCMQGSLGSPGPPGPQGPPGLPGKTGPKGEKGELGRPGRKGRPGPPGVPGMPGPIGWPGPEGPRGEKGDLGMMGLPGSRGPMGSKGYPGSRGEKGSRGEKGDLGPKGEKGFPGFPGMLGQKGEMGPKGEPGIAGHRGPTGRPGKRGKQGQKGDSGVMGPPGKPGPSGQPGRPGPPGPPPAGQLIMGPKGERGFPGPPGRCLCGPTMNVNNPSYGESVYGPSSPRVPVIFVVNNQEELERLNTQNAIAFRRDQRSLYFKDSLGWLPIQLTPFYPVDYTADQHGTCGDGLLQPGEECDDGNSDVGDDCIRCHRAYCGDGHRHEGVEDCDGSDFGYLTCETYLPGSYGDLQCTQYCYIDSTPCRYFT
Which binding [1] does the source give for B1 here?
The binding was “binds”.

And the binding [2]?
The binding was “binds”.

And the binding [3]?
Its binding is “no binding”.

And the binding [4]?
Its binding is “no binding”.

What about the binding [5] of the same binder?
Its binding is “binds”.

These are yes or no findings as the source states them, for the method shown. Binding seen in cells or lysates may run through a third protein. For some assays here: Binding calls can cover weak binding; strength is not graded here. Tags and fused reporters may be left off the sequences shown.
